No constants are given. Whether binding was seen depends on the method and setting. In cells and extracts the contact can be indirect. These calls come from enrichment with a bait or labelling near it, and not all partners need be listed.
These substances were tested against T1, BRI2 (integral membrane protein 2B) (rat (endogenous in brain)) (UniProt Q5XIE8) (assay: affinity purification with mass spectrometry; mouse anti-BRI2 antibody (N-terminal region) on Dynabeads Protein G; pre-cleared rat cerebral cortex, hippocampus and cerebellum lysates (50 mM Tris-HCl pH 8.0, 120 mM NaCl, 4% CHAPS), overnight at 4 °C; co-precipitated proteins identified by nano-HPLC-MS/MS; hits absent from the two mock IPs or with a PSM ratio >= 2.0).
T1 sequence: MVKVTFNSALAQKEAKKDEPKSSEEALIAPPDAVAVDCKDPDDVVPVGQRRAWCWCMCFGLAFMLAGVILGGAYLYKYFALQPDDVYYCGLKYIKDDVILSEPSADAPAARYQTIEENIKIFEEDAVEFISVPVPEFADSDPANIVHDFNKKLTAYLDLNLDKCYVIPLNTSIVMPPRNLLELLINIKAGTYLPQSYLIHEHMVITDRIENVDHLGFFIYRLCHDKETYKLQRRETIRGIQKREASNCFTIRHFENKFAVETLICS

Sequences of proteins named here, by UniProt entry; tags and fusion partners are left off. Residues count along the entry.
UniProt Q64568: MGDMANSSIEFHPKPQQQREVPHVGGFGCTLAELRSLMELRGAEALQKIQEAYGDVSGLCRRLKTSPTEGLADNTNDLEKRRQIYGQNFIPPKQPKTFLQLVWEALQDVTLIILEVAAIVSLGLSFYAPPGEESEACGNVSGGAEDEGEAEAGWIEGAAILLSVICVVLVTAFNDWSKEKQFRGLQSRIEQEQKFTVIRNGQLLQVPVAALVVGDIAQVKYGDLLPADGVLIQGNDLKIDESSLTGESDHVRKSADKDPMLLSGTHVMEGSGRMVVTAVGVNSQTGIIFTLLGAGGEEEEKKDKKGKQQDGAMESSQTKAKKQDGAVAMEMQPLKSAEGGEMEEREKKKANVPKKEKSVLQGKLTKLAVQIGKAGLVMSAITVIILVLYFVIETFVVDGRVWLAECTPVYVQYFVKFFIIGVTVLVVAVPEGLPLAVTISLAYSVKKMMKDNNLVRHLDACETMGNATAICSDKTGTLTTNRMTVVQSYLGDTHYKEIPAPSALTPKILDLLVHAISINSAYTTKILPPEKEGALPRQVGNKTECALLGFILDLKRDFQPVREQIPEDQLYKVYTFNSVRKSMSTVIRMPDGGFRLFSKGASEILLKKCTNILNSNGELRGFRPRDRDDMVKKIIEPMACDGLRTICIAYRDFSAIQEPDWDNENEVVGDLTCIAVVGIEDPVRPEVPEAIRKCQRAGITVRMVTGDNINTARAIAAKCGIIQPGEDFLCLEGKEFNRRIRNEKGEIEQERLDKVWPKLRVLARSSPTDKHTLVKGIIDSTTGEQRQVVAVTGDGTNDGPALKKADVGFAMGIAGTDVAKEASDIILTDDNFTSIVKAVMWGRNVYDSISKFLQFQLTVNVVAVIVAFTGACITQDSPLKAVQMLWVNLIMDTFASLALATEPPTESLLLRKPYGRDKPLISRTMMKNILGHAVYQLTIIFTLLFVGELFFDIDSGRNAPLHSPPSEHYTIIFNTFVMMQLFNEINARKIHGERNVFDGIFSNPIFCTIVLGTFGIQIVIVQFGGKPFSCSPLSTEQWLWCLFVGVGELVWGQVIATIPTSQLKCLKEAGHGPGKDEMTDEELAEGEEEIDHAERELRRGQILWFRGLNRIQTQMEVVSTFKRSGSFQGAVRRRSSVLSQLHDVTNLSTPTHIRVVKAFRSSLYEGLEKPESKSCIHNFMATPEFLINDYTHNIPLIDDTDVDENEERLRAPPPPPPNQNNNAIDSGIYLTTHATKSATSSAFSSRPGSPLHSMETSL
UniProt P08413: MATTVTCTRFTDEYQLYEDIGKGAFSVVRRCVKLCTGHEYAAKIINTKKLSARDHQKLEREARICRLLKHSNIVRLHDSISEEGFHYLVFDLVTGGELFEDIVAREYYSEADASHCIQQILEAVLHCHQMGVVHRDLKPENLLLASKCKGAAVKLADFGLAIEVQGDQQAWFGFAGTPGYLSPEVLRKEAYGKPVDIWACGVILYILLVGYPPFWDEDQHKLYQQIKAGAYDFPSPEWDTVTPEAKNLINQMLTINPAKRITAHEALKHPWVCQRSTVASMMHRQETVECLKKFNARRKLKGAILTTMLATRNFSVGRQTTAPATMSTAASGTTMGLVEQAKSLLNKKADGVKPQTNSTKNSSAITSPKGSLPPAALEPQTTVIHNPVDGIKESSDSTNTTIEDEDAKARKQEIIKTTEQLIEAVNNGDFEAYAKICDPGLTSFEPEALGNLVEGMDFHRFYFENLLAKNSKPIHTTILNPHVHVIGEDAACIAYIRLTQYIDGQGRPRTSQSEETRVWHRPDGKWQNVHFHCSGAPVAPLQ
UniProt P47819: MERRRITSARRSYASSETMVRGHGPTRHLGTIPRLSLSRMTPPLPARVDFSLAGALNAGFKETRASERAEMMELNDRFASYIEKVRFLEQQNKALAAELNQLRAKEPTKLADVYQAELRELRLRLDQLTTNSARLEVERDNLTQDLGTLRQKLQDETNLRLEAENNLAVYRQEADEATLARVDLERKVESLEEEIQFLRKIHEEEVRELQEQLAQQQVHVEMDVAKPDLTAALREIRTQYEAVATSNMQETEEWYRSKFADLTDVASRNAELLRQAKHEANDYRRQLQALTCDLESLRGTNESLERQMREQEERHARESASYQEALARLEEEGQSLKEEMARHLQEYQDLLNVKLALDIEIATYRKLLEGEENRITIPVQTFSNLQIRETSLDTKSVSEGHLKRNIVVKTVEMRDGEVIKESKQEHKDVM
UniProt Q9Z1T4: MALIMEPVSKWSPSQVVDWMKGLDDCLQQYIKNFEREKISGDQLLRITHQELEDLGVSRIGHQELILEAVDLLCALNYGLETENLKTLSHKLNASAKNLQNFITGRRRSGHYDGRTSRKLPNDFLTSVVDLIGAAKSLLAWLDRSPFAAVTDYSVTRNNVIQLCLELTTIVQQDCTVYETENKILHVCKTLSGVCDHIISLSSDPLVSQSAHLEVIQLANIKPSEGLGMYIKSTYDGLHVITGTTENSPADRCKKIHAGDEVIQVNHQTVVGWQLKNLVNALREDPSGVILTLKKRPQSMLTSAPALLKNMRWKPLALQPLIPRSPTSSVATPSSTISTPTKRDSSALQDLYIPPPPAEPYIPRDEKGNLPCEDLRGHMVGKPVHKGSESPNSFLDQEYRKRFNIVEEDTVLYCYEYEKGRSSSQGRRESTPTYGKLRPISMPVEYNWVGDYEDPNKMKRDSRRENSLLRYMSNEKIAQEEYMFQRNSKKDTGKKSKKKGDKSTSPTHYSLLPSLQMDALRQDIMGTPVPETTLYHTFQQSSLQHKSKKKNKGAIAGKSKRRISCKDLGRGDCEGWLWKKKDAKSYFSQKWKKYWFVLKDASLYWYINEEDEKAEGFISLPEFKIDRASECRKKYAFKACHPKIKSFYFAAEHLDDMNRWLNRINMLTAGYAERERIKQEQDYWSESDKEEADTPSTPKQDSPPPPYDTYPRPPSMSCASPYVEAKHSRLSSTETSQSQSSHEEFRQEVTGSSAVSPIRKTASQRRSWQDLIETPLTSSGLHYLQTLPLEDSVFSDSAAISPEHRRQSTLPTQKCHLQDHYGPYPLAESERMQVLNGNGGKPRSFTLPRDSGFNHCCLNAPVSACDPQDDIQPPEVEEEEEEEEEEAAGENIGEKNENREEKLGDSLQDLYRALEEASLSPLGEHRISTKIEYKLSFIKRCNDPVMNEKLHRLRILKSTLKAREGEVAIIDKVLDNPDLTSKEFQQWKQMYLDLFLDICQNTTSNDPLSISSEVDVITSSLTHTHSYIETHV
UniProt P55067, residues 23-1257: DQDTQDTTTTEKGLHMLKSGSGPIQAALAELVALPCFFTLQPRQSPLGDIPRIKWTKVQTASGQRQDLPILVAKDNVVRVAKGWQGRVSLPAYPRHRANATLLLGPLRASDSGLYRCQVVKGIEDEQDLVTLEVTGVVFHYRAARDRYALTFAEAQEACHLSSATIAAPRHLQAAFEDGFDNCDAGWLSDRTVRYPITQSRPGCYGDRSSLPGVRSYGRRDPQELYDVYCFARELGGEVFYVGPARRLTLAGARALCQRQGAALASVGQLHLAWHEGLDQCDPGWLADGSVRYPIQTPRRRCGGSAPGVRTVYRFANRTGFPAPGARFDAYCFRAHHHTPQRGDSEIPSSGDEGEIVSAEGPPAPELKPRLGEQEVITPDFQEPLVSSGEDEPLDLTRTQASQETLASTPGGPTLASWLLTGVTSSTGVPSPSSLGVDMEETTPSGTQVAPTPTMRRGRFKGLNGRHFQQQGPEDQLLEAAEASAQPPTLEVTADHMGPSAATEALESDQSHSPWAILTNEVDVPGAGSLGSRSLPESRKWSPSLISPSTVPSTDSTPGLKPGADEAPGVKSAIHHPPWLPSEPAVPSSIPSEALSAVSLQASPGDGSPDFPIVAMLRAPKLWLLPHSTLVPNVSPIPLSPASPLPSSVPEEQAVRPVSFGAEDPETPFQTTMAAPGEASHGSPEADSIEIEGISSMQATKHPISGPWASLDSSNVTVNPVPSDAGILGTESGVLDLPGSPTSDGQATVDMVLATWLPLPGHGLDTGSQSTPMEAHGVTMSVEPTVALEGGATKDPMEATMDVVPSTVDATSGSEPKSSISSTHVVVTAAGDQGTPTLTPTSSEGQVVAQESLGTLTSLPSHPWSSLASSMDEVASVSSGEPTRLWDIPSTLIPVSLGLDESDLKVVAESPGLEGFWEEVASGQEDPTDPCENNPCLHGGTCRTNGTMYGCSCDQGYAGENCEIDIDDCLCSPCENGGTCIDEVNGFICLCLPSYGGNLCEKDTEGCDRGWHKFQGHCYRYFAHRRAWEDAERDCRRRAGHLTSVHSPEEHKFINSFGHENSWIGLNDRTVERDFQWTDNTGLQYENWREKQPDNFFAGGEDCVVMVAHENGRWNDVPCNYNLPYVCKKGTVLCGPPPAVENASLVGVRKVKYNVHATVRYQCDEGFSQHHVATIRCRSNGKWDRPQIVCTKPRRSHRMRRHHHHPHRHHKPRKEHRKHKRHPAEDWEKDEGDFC
UniProt Q62951: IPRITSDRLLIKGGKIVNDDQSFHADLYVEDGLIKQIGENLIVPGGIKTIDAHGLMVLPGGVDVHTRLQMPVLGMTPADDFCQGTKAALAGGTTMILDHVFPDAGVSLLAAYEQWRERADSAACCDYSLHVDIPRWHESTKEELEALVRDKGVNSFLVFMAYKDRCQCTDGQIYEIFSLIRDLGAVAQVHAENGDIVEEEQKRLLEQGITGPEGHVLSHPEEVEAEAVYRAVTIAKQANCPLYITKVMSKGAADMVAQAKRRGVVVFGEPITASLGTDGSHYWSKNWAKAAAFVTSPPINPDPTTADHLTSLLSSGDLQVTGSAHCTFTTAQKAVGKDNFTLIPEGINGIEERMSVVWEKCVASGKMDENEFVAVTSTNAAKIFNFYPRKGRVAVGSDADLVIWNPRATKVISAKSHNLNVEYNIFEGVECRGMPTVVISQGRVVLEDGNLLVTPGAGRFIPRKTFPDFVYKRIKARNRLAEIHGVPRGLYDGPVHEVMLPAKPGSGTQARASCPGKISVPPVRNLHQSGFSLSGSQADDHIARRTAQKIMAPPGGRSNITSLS
UniProt P54290, residues 25-1091: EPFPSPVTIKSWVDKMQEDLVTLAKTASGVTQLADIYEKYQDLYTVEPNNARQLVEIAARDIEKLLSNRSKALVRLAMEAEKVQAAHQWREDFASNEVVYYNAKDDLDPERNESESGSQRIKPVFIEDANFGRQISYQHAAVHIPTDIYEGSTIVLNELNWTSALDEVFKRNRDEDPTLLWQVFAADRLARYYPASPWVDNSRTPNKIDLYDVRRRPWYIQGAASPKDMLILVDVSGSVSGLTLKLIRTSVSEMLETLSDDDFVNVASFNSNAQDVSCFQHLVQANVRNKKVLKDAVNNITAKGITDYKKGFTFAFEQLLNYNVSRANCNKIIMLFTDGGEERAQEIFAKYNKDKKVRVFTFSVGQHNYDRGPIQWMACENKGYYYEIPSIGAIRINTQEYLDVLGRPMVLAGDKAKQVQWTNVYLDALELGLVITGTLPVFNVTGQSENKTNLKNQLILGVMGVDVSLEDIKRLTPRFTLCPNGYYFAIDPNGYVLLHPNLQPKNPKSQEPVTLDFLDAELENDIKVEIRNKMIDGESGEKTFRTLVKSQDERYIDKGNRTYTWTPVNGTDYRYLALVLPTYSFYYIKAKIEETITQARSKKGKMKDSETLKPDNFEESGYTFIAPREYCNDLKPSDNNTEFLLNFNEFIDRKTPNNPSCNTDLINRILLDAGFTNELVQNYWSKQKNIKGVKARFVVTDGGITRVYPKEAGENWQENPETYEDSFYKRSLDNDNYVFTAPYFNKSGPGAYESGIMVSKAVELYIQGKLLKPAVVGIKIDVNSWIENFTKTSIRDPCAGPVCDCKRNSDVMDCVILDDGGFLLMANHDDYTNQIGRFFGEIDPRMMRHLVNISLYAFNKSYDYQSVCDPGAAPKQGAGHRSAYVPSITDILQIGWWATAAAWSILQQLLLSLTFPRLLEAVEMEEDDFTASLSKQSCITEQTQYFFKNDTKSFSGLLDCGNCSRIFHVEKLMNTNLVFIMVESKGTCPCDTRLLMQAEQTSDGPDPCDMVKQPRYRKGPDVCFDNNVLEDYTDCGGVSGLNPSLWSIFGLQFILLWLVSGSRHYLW
UniProt Q62747: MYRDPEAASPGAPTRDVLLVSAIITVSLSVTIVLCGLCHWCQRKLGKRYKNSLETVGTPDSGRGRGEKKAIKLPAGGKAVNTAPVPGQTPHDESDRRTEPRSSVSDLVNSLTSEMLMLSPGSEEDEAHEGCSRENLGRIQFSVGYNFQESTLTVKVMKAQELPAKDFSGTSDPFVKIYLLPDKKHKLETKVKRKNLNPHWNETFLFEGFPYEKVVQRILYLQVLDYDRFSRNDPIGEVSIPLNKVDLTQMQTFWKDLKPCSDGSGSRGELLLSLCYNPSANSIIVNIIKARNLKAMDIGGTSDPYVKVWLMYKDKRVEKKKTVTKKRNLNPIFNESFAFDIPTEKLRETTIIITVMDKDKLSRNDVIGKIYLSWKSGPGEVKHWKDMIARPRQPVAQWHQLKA

**Q.** How did the binding turn out when “Disks large-associated protein 1 (from UniProt P97836 1-992)” was run?
**A.** binds

**Q.** Which binding does the source give for “serine/threonine-protein phosphatase PP1-alpha catalytic subunit (from UniProt P62138 1-330)” here?
**A.** binds

**Q.** With “Microtubule-associated protein 1 A (from UniProt P34926 1-2774)” as the substance, how does the binding read?
**A.** binds

**Q.** With “Plasma membrane calcium-transporting ATPase 3 (from UniProt Q64568 1-1258)” as the substance, how does the binding read?
**A.** binds

**Q.** For “Visinin-like protein 1 (from UniProt P62762 1-191)”, which binding is on record?
**A.** binds

**Q.** How did the binding turn out when “Syntaxin-binding protein 1 (from UniProt P61765 1-594)” was run?
**A.** binds

**Q.** “Synaptic vesicle glycoprotein 2 A (from UniProt Q02563 1-742)” was tested. Which binding did it give?
**A.** binds

**Q.** How did the binding turn out when “ELAV-like protein 2 (from UniProt Q8CH84 1-359)” was run?
**A.** binds

**Q.** “Tubulin beta-2A chain (from UniProt P85108 1-445)” was tested. Which binding did it give?
**A.** binds

**Q.** Which binding does the source give for “Arf-GAP with GTPase, ANK repeat and PH domain-containing protein 2 (from UniProt Q8CGU4 1-1186)” here?
**A.** binds

**Q.** For “Tubulin beta-3 chain (from UniProt Q4QRB4 1-450)”, which binding is on record?
**A.** binds

**Q.** With “Dihydropyrimidinase-related protein 1 (from UniProt Q62950 1-572)” as the substance, how does the binding read?
**A.** binds

**Q.** For “Calcium/calmodulin-dependent protein kinase type II subunit beta (from UniProt P08413 1-542)”, which binding is on record?
**A.** binds

**Q.** Synapsin-1 (from UniProt P09951 1-704) was tested. Which binding did it give?
**A.** binds

**Q.** How did the binding turn out when “Protein piccolo (from UniProt Q9JKS6 1-5085)” was run?
**A.** binds

**Q.** With “Synaptotagmin-2 (from UniProt P29101 1-422)” as the substance, how does the binding read?
**A.** binds

**Q.** For “Glial fibrillary acidic protein (from UniProt P47819 1-430)”, which binding is on record?
**A.** binds

**Q.** “Glutamate receptor ionotropic, NMDA 1 (from UniProt P35439 19-938)” was tested. Which binding did it give?
**A.** binds

**Q.** Which binding does the source give for “Plasma membrane calcium-transporting ATPase 2 (from UniProt P11506 1-1243)” here?
**A.** binds

**Q.** “Kinesin light chain 1 (from UniProt P37285 1-560)” was tested. Which binding did it give?
**A.** binds

**Q.** With “Glutamate receptor 1 (from UniProt P19490 19-907)” as the substance, how does the binding read?
**A.** binds

**Q.** With “Guanine nucleotide-binding protein G (from UniProt P19627 1-355)” as the substance, how does the binding read?
**A.** binds

**Q.** Which binding does the source give for “Rabphilin-3A (from UniProt P47709 1-684)” here?
**A.** binds

**Q.** With “Neuronal-specific septin-3 (from UniProt Q9WU34 1-358)” as the substance, how does the binding read?
**A.** binds

**Q.** For “Tubulin beta-2B chain (from UniProt Q3KRE8 1-445)”, which binding is on record?
**A.** binds

**Q.** With “Synaptophysin (from UniProt P07825 1-307)” as the substance, how does the binding read?
**A.** binds

**Q.** With “Regulating synaptic membrane exocytosis protein 1 (from UniProt Q9JIR4 1-1615)” as the substance, how does the binding read?
**A.** binds

**Q.** Which binding does the source give for “Sodium/calcium exchanger 2 (from UniProt P48768 21-921)” here?
**A.** binds

**Q.** With “Proline-rich transmembrane protein 1 (from UniProt Q6MG82 1-306)” as the substance, how does the binding read?
**A.** binds

**Q.** For Synapsin-2 (from UniProt Q63537 1-586), which binding is on record?
**A.** binds

**Q.** Which binding does the source give for “Microtubule-associated protein 1B (from UniProt P15205 1-2461)” here?
**A.** binds

**Q.** How did the binding turn out when “Protein bassoon (from UniProt O88778 1-3938)” was run?
**A.** binds

**Q.** “Myelin basic protein (from UniProt P02688 1-195)” was tested. Which binding did it give?
**A.** binds

**Q.** With “Calcium/calmodulin-dependent protein kinase type II subunit alpha (from UniProt P11275 1-478)” as the substance, how does the binding read?
**A.** binds

**Q.** Which binding does the source give for “Calcium-dependent secretion activator 1 (from UniProt Q62717 1-1289)” here?
**A.** binds

**Q.** With “Connector enhancer of kinase suppressor of ras 2 (from UniProt Q9Z1T4 1-1032)” as the substance, how does the binding read?
**A.** binds

**Q.** How did the binding turn out when “Glutamate receptor ionotropic, NMDA 2B (from UniProt Q00960 27-1482)” was run?
**A.** binds

**Q.** How did the binding turn out when “Guanine nucleotide-binding protein G (from UniProt P59215 1-354)” was run?
**A.** binds

**Q.** Which binding does the source give for “Potassium voltage-gated channel subfamily A member 1 (from UniProt P10499 1-495)” here?
**A.** binds

**Q.** With “Neurocan core protein (from UniProt P55067 23-1257)” as the substance, how does the binding read?
**A.** binds

**Q.** For “Sodium/potassium-transporting ATPase subunit alpha-2 (from UniProt P06686 1-1020)”, which binding is on record?
**A.** binds

**Q.** For “Vesicle-fusing ATPase (from UniProt Q9QUL6 1-744)”, which binding is on record?
**A.** binds

**Q.** For “Endophilin-A1 (from UniProt O35179 1-352)”, which binding is on record?
**A.** binds

**Q.** With “Synaptosomal-associated protein 25 (from UniProt P60881 1-206)” as the substance, how does the binding read?
**A.** binds

**Q.** “Protein kinase C gamma type (from UniProt P63319 1-697)” was tested. Which binding did it give?
**A.** binds

**Q.** “Kinesin heavy chain isoform 5 A (from UniProt Q6QLM7 1-1027)” was tested. Which binding did it give?
**A.** binds

**Q.** “Voltage-dependent calcium channel gamma-2 subunit (from UniProt Q71RJ2 1-323)” was tested. Which binding did it give?
**A.** binds

**Q.** “Sodium/potassium-transporting ATPase subunit beta-2 (from UniProt P13638 1-290)” was tested. Which binding did it give?
**A.** binds

**Q.** With “Synaptotagmin-1 (from UniProt P21707 1-421)” as the substance, how does the binding read?
**A.** binds

**Q.** For Syntaxin-1B (from UniProt P61265 1-288), which binding is on record?
**A.** binds

**Q.** Which binding does the source give for “Dihydropyrimidinase-related protein 4 (from UniProt Q62951 1-564)” here?
**A.** binds

**Q.** With “dihydropyridine-sensitive L-type, calcium channel alpha-2/delta subunit (from UniProt P54290 25-1091)” as the substance, how does the binding read?
**A.** binds

**Q.** For “Kinesin heavy chain isoform 5 C (from UniProt P56536 1-955)”, which binding is on record?
**A.** binds

**Q.** “Synaptic vesicle glycoprotein 2B (from UniProt Q63564 1-683)” was tested. Which binding did it give?
**A.** binds

**Q.** Which binding does the source give for “Neural cell adhesion molecule 1 (from UniProt P13596 20-858)” here?
**A.** binds

**Q.** For “Synaptotagmin-7 (from UniProt Q62747 1-403)”, which binding is on record?
**A.** binds

**Q.** “Brevican core protein (from UniProt P55068 23-883)” was tested. Which binding did it give?
**A.** binds

**Q.** “Sodium/potassium-transporting ATPase subunit alpha-3 (from UniProt P06687 1-1013)” was tested. Which binding did it give?
**A.** binds

**Q.** Which binding does the source give for Complexin-1 (from UniProt P63041 1-134) here?
**A.** binds

**Q.** How did the binding turn out when “Glutamate receptor 2 (from UniProt P19491 22-883)” was run?
**A.** binds

**Q.** Which binding does the source give for “Homer protein homolog 1 (from UniProt Q9Z214 1-366)” here?
**A.** binds
